Source: PubChem BioAssay AID1259308 (NCATS, 2017)
Here is a random part of about 59,000 deposited reagents. About 1,510 of all reagents (2.6%) count as active. 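Calls use total luciferase alone and ignore viability, so some active siRNAs may act by altering cell number.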 Not all columns of the deposit are shown.

Screen: 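Candidate targets for better recombinant protein yield in mammalian cells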 (primary screen)
System: human HEK293 embryonic kidney cells stably expressing firefly luciferase (HEK-CMV-Luc2-Hygro)
Reagent: single siRNA against human genes, 0.8 pmol siRNA per well
Timing: 72 h
Read-out: 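Reporter luminescence and viable-cell signal on separate replicate plates, given as percent of non-targeting control and median/MAD z-scores, plus per-cell luciferase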
Reading the numbers: total luciferase, z-score and total luciferase, % of control: higher = more reporter protein produced
Rule for the call: 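Active when the median/MAD z-score for overall luciferase is greater than 3; a gene was taken forward for validation with new siRNAs if at least two of its three siRNAs passed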
Calls: active = raised luciferase; inactive = no rise

| gene symbol | PubChem SID | total luciferase, z-score | total luciferase, % of control | call |
| --- | --- | --- | --- | --- |
| MAP7D3 | SID160749093 | 0.0393 | 82.7 | inactive |
| MAP7D3 | SID160749094 | 0.322 | 88.3 | inactive |
| MAP7D3 | SID160749095 | -0.093 | 80 | inactive |
| RAB4B | SID160741500 | -0.626 | 69.4 | inactive |
| RAB4B | SID160741501 | -0.624 | 69.5 | inactive |
| RAB4B | SID160741502 | -1.09 | 60.1 | inactive |
| ZACN | SID160765162 | -0.74 | 67.2 | inactive |
| ZACN | SID160765163 | -1.39 | 54.3 | inactive |
| ZACN | SID160765164 | -1.08 | 60.5 | inactive |
| BAP1 | SID160719840 | -0.749 | 67 | inactive |
| BAP1 | SID160719841 | 1.65 | 115 | inactive |
| BAP1 | SID160719842 | 1.02 | 102 | inactive |
| SH2D2A | SID160721339 | -0.77 | 66.6 | inactive |
| SH2D2A | SID160721340 | 1.03 | 102 | inactive |
| SH2D2A | SID160721341 | -0.153 | 78.8 | inactive |
| URB1-DT | SID160753106 | -0.568 | 70.6 | inactive |
| URB1-DT | SID160753107 | 0.569 | 93.2 | inactive |
| URB1-DT | SID160753108 | -0.974 | 62.5 | inactive |
| SPATA31G1 | SID160757616 | 1.82 | 118 | inactive |
| SPATA31G1 | SID160757617 | -0.564 | 70.7 | inactive |
| SPATA31G1 | SID160757618 | 0.164 | 85.2 | inactive |
| TCHP | SID160751983 | 0.316 | 88.2 | inactive |
| TCHP | SID160751984 | -0.728 | 67.4 | inactive |
| TCHP | SID160751986 | 0.0612 | 83.1 | inactive |
| RICTOR | SID160732801 | -0.613 | 69.7 | inactive |
| RICTOR | SID160762064 | -0.477 | 72.4 | inactive |
| RICTOR | SID160762066 | -1.26 | 56.8 | inactive |

3 consecutive reagents already listed, for reference:
| gene symbol | PubChem SID | total luciferase, z-score | total luciferase, % of control | call |
| --- | --- | --- | --- | --- |
| BAP1 | SID160719841 | 1.65 | 115 | inactive |
| BAP1 | SID160719842 | 1.02 | 102 | inactive |
| SH2D2A | SID160721339 | -0.77 | 66.6 | inactive |

Additional reagents follow.
| gene symbol | PubChem SID | total luciferase, z-score | total luciferase, % of control | call |
| --- | --- | --- | --- | --- |
| OGDHL | SID160744268 | 0.26 | 87.1 | inactive |
| OGDHL | SID160744269 | 1.25 | 107 | inactive |
| OGDHL | SID160744270 | -0.651 | 68.9 | inactive |
| CNOT11 | SID160743812 | 0.132 | 84.5 | inactive |
| CNOT11 | SID160743813 | -0.549 | 71 | inactive |
| CNOT11 | SID160743814 | -0.637 | 69.2 | inactive |
| LOC642677 | SID160768674 | 0.685 | 95.5 | inactive |
| LOC642677 | SID160768675 | 2.43 | 130 | inactive |
| LOC642677 | SID160768676 | -0.681 | 68.3 | inactive |
| SYT6 | SID160758681 | 0.579 | 93.4 | inactive |
| SYT6 | SID160758682 | -2.26 | 36.8 | inactive |
| SYT6 | SID160758683 | 1.05 | 103 | inactive |
| CFAP45 | SID160736972 | -0.83 | 65.4 | inactive |
| CFAP45 | SID160736973 | -0.922 | 63.6 | inactive |
| CFAP45 | SID160736974 | 0.822 | 98.2 | inactive |
| MAD2L1BP | SID160722570 | -0.11 | 79.7 | inactive |
| MAD2L1BP | SID160722571 | -0.0372 | 81.1 | inactive |
| MAD2L1BP | SID160722572 | 2.49 | 131 | inactive |
| PREB | SID160725545 | 3 | 142 | active |
| PREB | SID160725555 | -0.114 | 79.6 | inactive |
| PREB | SID160725563 | -1.91 | 44 | inactive |
| SSTR4 | SID160717409 | 4.39 | 169 | active |
| SSTR4 | SID160724087 | 0.695 | 95.7 | inactive |
| SSTR4 | SID160731799 | 0.378 | 89.4 | inactive |
| ATG3 | SID160747766 | 0.102 | 83.9 | inactive |
| ATG3 | SID160747767 | 0.812 | 98 | inactive |
| ATG3 | SID160747768 | -1.74 | 47.3 | inactive |
| TRIM13 | SID160726942 | -0.000591 | 81.9 | inactive |
| TRIM13 | SID160726949 | 1.74 | 116 | inactive |
| TRIM13 | SID160726956 | -0.0846 | 80.2 | inactive |
| DUX1 | SID160724350 | 0.364 | 89.1 | inactive |
| DUX1 | SID160724351 | -0.452 | 72.9 | inactive |
| DUX1 | SID160724352 | -0.14 | 79.1 | inactive |
| DOLK | SID160731937 | -0.342 | 75.1 | inactive |
| DOLK | SID160731944 | -0.941 | 63.2 | inactive |
| DOLK | SID160731950 | 0.0805 | 83.5 | inactive |
| HNRNPA1 | SID160731072 | -0.469 | 72.6 | inactive |
| HNRNPA1 | SID160775113 | 2.85 | 139 | inactive |
| HNRNPA1 | SID160775114 | -1.12 | 59.6 | inactive |
| OVCH1 | SID160764535 | 1.06 | 103 | inactive |
| OVCH1 | SID160764537 | 0.387 | 89.6 | inactive |
| OVCH1 | SID160764538 | 1.95 | 121 | inactive |
| BTG4 | SID160733552 | -0.636 | 69.2 | inactive |
| BTG4 | SID160742134 | -1.16 | 58.8 | inactive |
| BTG4 | SID160742135 | -0.132 | 79.3 | inactive |
| GFI1 | SID160770485 | 0.653 | 94.9 | inactive |
| GFI1 | SID160770495 | -1.39 | 54.2 | inactive |
| GFI1 | SID160770505 | 0.754 | 96.9 | inactive |
